Assay results from patent US20240352121A1, “LAIR-1 AGONISTIC ANTIBODIES AND METHODS OF USE THEREOF” (NEXTCURE, INC., priority 2023, published 2024).
These are yes or no findings as the source states them, for the method shown. A result given as binding can be weak or reduced; the word gives no strength.

Columns and labels:
[1] = target: cynomolgus LAIR-1 expressed on cells (293T cell line overexpressing cynomolgus LAIR-1) (cynomolgus); experiment: cell binding (FIG. 20B)
[2] = target: cynomolgus LAIR-1 expressed on cells (293T cell line overexpressing cynomolgus LAIR-1) (cynomolgus); experiment: flow cytometry, titrated h11B3, AF647 secondary antibody (FIG. 21B)

B1: h11B3 LAIR-1 mAb, Anti-LAIR-1 Variant 6 (h11B3 VL-2 / h11B3 VH-3) (antibody, V domains shown)
VH: EVQLVESGGGLVQPGGSLKLSCAASGFTFNTNAMYWVRQAPGKGLEWVGRIRSKSSNYATYYAASVKGRFTISRDDSKNTLYLQMNSLKTEDTAVYYCVRGGSGFFAYWGQGTLVTVSS
VL: DIQMTQSPSSLSASLGDRVTITCKASEDIYIRLAWYQQKPGKAPRLLISTATSLETGVPSRFSGSGSGTDYTFTISSLQPEDIATYYCQQYWSTPYTFGGGTRLEIK
binding [1]: binds | binding [2]: binds
